Assay results reported in publication PMC4534191.
Results are given in words; binding and its absence hold for the method and conditions named. In cells and extracts the contact can be indirect. Some entries that bind do so weakly or less than the wild type.

By UniProt entry, the sequences of proteins in these tests, tags left out.
UniProt Q15836: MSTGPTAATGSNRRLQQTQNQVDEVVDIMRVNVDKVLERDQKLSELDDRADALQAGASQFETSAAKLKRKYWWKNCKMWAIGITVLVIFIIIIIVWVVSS

Target: T1, SNAP23 (human (endogenous in HUVEC)) (UniProt O00161)
T1 sequence: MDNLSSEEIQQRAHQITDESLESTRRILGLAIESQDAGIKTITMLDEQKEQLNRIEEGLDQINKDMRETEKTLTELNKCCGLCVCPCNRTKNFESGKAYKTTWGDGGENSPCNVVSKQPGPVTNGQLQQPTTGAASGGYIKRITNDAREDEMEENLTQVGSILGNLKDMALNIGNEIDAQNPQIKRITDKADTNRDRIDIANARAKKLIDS
Assay: co-IP; HUVEC resting (serum-free medium) or stimulated with 10 μM histamine or 10 μM A23187 for 30 min, lysed in M-PER; antibody to SNAP23 or isotype IgG on protein A/G PLUS-agarose, overnight at 4°C, 6 washes with cold PBS; precipitants probed for STX4, VAMP3 and VAMP8

Question: With “vesicle-associated membrane protein (VAMP) 3 (from UniProt Q15836 1-100)” as the substance, how does the binding read?
Answer: binds
